Among the data in paper PMC3510053 are binding values, retold here.

Amino acid sequences for entries named in this document (tags omitted). Residues count along the entry.
MBP-SPT5N (SPT5-N, aa 112–393) (Q9V460, residues 112-393): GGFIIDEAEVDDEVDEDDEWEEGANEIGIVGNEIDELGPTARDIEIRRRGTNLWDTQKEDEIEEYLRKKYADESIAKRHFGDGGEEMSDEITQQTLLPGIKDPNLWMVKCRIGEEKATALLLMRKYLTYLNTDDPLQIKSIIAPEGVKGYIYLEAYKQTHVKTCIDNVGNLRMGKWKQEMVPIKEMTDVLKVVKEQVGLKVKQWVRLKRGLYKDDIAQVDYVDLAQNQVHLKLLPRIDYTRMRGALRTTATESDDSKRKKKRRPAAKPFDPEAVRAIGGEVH
MBP-SPT5M (SPT5 M, aa 389–733) (Q9V460, residues 389-733): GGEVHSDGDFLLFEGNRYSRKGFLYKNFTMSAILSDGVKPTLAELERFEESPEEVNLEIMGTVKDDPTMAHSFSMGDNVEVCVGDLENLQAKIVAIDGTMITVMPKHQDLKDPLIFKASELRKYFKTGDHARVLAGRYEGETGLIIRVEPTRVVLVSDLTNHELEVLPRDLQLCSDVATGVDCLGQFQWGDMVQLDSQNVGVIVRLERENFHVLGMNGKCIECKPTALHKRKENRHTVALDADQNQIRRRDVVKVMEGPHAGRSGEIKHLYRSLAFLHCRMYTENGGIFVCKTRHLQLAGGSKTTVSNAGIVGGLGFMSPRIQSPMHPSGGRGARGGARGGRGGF
MBP-SPT5C (SPT5 C, aa 732–1054) (Q9V460, residues 732-1054): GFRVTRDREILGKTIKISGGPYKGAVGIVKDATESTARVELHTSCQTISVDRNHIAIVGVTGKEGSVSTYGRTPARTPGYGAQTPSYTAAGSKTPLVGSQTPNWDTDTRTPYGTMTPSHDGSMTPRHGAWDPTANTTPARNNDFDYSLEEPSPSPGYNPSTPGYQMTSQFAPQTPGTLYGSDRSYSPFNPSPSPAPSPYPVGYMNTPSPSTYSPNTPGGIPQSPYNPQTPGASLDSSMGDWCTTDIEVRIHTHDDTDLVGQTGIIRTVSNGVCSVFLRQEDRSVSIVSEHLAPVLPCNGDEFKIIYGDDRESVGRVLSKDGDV

No constants are given. Whether binding was seen depends on the method and setting. Some entries that bind do so weakly or less than the wild type. Where a sequence is shown, tags or fusion partners need not be part of it.

Holding throughout (experiment): pull-down; MBP-SPT5 fragments bound to amylose beads, equivalent molar concentrations, incubated with GST proteins; three washes with 150 mM NaCl, 0.1% NP40, 20 mM Tris for 10 min at 4°C; eluted by boiling in SDS-loading buffer; anti-GST Western; both purified
Test [1] concerns the target MBP-SPT5C (SPT5 C, aa 732–1054) (Drosophila) (UniProt Q9V460).
Test [2] addresses MBP-SPT5N (SPT5-N, aa 112–393) (Drosophila) (UniProt Q9V460).
In test [3] the target is MBP-SPT5M (SPT5 M, aa 389–733) (Drosophila) (UniProt Q9V460).

B1: GST-MSL1 PEHE domain (aa 751–1039) (domain or fragment, UniProt P50535 751-1039)
chain: TPTPGSTPQHAVTSSMDQEISAAKSKSKAAEQIATPLTPQSNSSVSSTTSTIRKTLNNCSPHTYSKATARSGKLQSRFRTATFPYSTRTWEDQEFHCDNEFFLEEADELLADNPSLEIPKWRDVPVPPSSDKIDTELLSDATFERRHQKYVKDEVDRKCRDARYMKEQIRLEQLRMRRNQDEVLVALDPLRASTFYPLPEDIEAIQFVNEVTVQAFGENVVNMEARDDFGVPWVDAIEAPTSIARSKALAEPVATLASKKIPTTAAEARHQENHSSYVFPKRRKRQKNR
On to B1, for which the binding entry in test [1] was “no binding”; in test [2] it was “binds”; in test [3], “binds”.
